In article PMC5572699:
No constants are given. Whether binding was seen depends on the method and setting. Binding seen in cells or lysates may run through a third protein. Some entries that bind do so weakly or less than the wild type.

Target: amotL2 (angiomotin like 2), endogenous in MDCK cells (dog (endogenous in MDCK))
Experiment: co-IP; endogenous proteins of MDCK cells; lysate (150 mM NaCl, 50 mM Tris-HCl pH 7.6, 10% glycerol, 1.5 mM MgCl2, 1 mM EDTA, 1% Triton X-100) incubated with antibody against AmotL2 for 2 h at 4 °C, Protein G Sepharose; rabbit IgG as negative control; western blot

B1: β-catenin, endogenous in MDCK cells (protein, UniProt B6V8E6 1-781)
chain: MATQADLMELDMAMEPDRKAAVSHWQQQSYLDSGIHSGATTTAPSLSGKGNPEEEDVDTTQVLYEWEQGFSQSFTQEQVADIDGQYAMTRAQRVRAAMFPETLDEGMQIPSTQFDAAHPTNVQRLAEPSQMLKHAVVNLINYQDDAELATRAIPELTKLLNDEDQVVVNKAAVMVHQLSKKEASRHAIMRSPQMVSAIVRTMQNTNDVETARCTAGTLHNLSHHREGLLAIFKSGGIPALVKMLGSPVDSVLFYAITTLHNLLLHQEGAKMAVRLAGGLQKMVALLNKTNVKFLAITTDCLQILAYGNQESKLIILASGGPQALVNIMRTYTYEKLLWTTSRVLKVLSVCSSNKPAIVEAGGMQALGLHLTDPSQRLVQNCLWTLRNLSDAATKQEGMEGLLGTLVQLLGSDDINVVTCAAGILSNLTCNNYKNKMMVCQVGGIEALVRTVLRAGDREDITEPAICALRHLTSRHQEAEMAQNAVRLHYGLPVVVKLLHPPSHWPLIKATVGLIRNLALCPANHAPLREQGAIPRLVQLLVRAHQDTQRRTSMGGTQQQFVEGVRMEEIVEGCTGALHILARDVHNRIVIRGLNTIPLFVQLLYSPIENIQRVAAGVLCELAQDKEAAEAIEAEGATAPLTELLHSRNEGVATYAAAVLFRMSEDKPQDYKKRLSVELTSSLFRTEPMAWNETADLGLDIGAQGEPLGYRQDDPSYRSFHSGGYGQDALGMDPMMEHEMGGHHPGADYPVDGLPDLGHAQDLMDGLPPGDSNQLAWFDTDL
- binding: binds
